Measurements taken from the supplement of paper PMC8551327.
Some of the results follow. Cut-off read from the data, not from the text of the source: active = 1.25 or more and inactive = the rest. Repeats are few or missing, and single values can be far off.

Each compound was assayed on Kcc2-LUC knock-in mouse primary cortical neurons (Kcc2 promoter reporter) (assay: Kcc2 promoter-driven luciferase activity relative to vehicle control (fold of vehicle (ratio)); higher = stronger Kcc2 promoter activation (Kcc2 expression enhancer)). Settings: 100 nM; 48 h.

Kcc2 promoter-driven luciferase activity, inactive:
CC1C(Oc2c(-c3ccc(O)c(O)c3)oc3c(O)cc(O)cc3c2=O)OC(O)C(O)C1O (centres undefined) [4H-1-Benzopyran-4-one,4-dihydroxyphenyl)-6,8-dihdroxy-] 0.87
CN=c1sc2c(n1C)C(=O)c1ccccc1C2=O [3-methyl-2-methyliminobenzo[f][1,3]benzothiazole-4,9-dione] 0.38
C=C1C(=O)O[C@H]2[C@H]1[C@H](OC(=O)/C(C)=C\C)C[C@](O)(CCl)[C@@H]1[C@H](OC(C)=O)C=C(C)[C@]21O [Eupachlorin Acetate] 0.995
Cc1ccc(S(=O)(=O)SC/C=C/CSS(=O)(=O)c2ccc(C)cc2)cc1 [Benzenesulfonothioic acid,2-butene-1,4-diyl ester, (Z)-] 0.82
Cc1c(N=Cc2ccc(N(CCC#N)CCC#N)cc2)c(=O)n(-c2ccccc2)n1C 1.1
COc1cc2oc3cc(=O)cc4oc(-c5ccccc5)cc(c2c2c1CC[C@@H](c1ccccc1)O2)c43 1
CCC(C#N)(c1ccccc1)N(CCc1ccccc1)C(=O)c1ccccc1 (centres undefined) [N-(1-Cyano-1-phenylpropyl)-N-phenethylbenzamide] 0.95
CCCCS(=N)(=O)CCC(N)C(=O)O (centres undefined) [Buthionine Sulfoximine] 0.6
C/C(=N\NC(=S)N1CCN(C2CCCCCC2)CC1)c1ccccn1 1.03
